In publication PMC3691878:
No constants are given. Whether binding was seen depends on the method and setting.

B1: human TNFSF11 (ligand, UniProt O14788)
chain: IRAEKAMVDGSWLDLAKRSKLEAQPFAHLTINATDIPSGSHKVSLSSWYHDRGWAKISNMTFSNGKLIVNQDGFYYLYANICFRHHETSGDLATEYLQLMVYVTKTSIKIPSSHTLMKGGSTKYWSGNSEFHFYSINVGGFFKLRSGEEISIEVSNPSLLDPDQDATYFGAFKVRDID
B2: human TNFSF15 (ligand, UniProt O95150)
chain: LKGQEFAPSHQQVYAPLRADGDKPRAHLTVVRQTPTQHFKNQFPALHWEHELGLAFTKNRMNYTNKFLLIPESGDYFIYSQVTFRGMTSECSEIRQAGRPNKPDSITVVITKVTDSYPEPTQLLMGTKSVCEVGSNWFQPIYLGAMFSLQEGDKLMVNVSDISLVDYTKEDKTFFGAFLL

Molecular target: LDVICp016-10His (Lymphocystis disease virus, isolate LCDV-C)
Test: SPR; LDVICp016L-His (500 ng) covalently coupled to a CM4 Biacore chip; ligands injected at 100 nM in HBS buffer, 25°C, 30 μl/min, 3 min association, 2 min dissociation; reference cell and blank subtracted; both purified

Binder	binding
B1	no binding (tested: 100 nM)
B2	no binding (tested: 100 nM)
